# According to the supplement of paper PMC8728848:
# The other results are listed elsewhere or left out.
# Experiments:
# Experiment in all cases: glycan array binding signal (z-score within array); higher = stronger binding
# Conditions in all cases: glycan notation: IUPAC condensed, linker removed
# [1] = target: Fuc(a1-2)Gal
# Method in brief: (§1)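 Columns mapping to the same glycan were averaged after glycan names were converted to IUPAC-condensed notation. The data come from 3228 arrays in the Consortium for Functional Glycomics database, limited to those with an available protein sequence. Binding is reported as a within-array Z-score averaged across arrays of one protein sequence and across linkers.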
# [2] = target: Fuc(a1-2)Gal(b1-3)GalNAc
# Method in brief: as §1
# [3] = target: Fuc(a1-2)Gal(b1-3)GalNAc(a1-3)[Fuc(a1-2)]Gal(b1-4)Glc
# Method in brief: as §1
# [4] = target: Fuc(a1-2)Gal(b1-3)GalNAc(a1-3)[Fuc(a1-2)]Gal(b1-4)GlcNAc
# Method in brief: as §1
# [5] = target: Fuc(a1-2)Gal(b1-3)GalNAc(b1-3)Gal
# Method in brief: as §1
# [6] = target: Fuc(a1-2)Gal(b1-3)GalNAc(b1-3)Gal(a1-4)Gal(b1-4)Glc
# Method in brief: as §1
# [7] = target: Fuc(a1-2)Gal(b1-3)GalNAc(b1-4)[Neu5Ac(a2-3)]Gal(b1-4)Glc
# Method in brief: as §1
# [8] = target: Fuc(a1-2)Gal(b1-3)GlcNAc
# Method in brief: as §1
# [9] = target: Fuc(a1-2)Gal(b1-3)GlcNAc(b1-2)Man(a1-3)[Fuc(a1-2)Gal(b1-3)GlcNAc(b1-2)Man(a1-6)]Man(b1-4)GlcNAc(b1-4)GlcNAc
# Method in brief: as §1
# [10] = target: Fuc(a1-2)Gal(b1-3)GlcNAc(b1-2)Man(a1-3)[Fuc(a1-2)Gal(b1-3)GlcNAc(b1-2)Man(a1-6)]Man(b1-4)GlcNAc(b1-4)[Fuc(a1-6)]GlcNAc
# Method in brief: as §1
# [11] = target: Fuc(a1-2)Gal(b1-3)GlcNAc(b1-3)Gal(b1-4)Glc
# Method in brief: as §1
# [12] = target: Fuc(a1-2)Gal(b1-3)GlcNAc(b1-3)GalNAc
# Method in brief: as §1
# [13] = target: Fuc(a1-2)Gal(b1-3)GlcNAc(b1-3)[Fuc(a1-2)Gal(b1-3)GlcNAc(b1-6)]GalNAc
# Method in brief: as §1
# [14] = target: Fuc(a1-2)Gal(b1-3)GlcNAc(b1-3)[Gal(b1-4)GlcNAc(b1-6)]Gal(b1-4)Glc
# Method in brief: as §1
# [15] = target: Fuc(a1-2)Gal(b1-3)GlcNAc(b1-3)[Neu5Ac(a2-6)Gal(b1-4)GlcNAc(b1-6)]Gal(b1-4)Glc
# Method in brief: as §1
# [16] = target: Fuc(a1-2)Gal(b1-3)GlcNAc6S
# Method in brief: as §1
# [17] = target: Fuc(a1-2)Gal(b1-3)[Fuc(a1-4)]GlcNAc
# Method in brief: as §1
# [18] = target: Fuc(a1-2)Gal(b1-3)[Fuc(a1-4)]GlcNAc(b1-2)Man(a1-3)[Fuc(a1-2)Gal(b1-3)[Fuc(a1-4)]GlcNAc(b1-2)Man(a1-3)]Man(b1-4)GlcNAc(b1-4)GlcNAc
# Method in brief: as §1
# [19] = target: Fuc(a1-2)Gal(b1-3)[Fuc(a1-4)]GlcNAc(b1-2)Man(a1-3)[Fuc(a1-2)Gal(b1-3)[Fuc(a1-4)]GlcNAc(b1-2)Man(a1-6)]Man(b1-4)GlcNAc(b1-4)[Fuc(a1-6)]GlcNAc(b1-4)[Fuc(a1-6)]GlcNAc
# Method in brief: as §1
# [20] = target: Fuc(a1-2)Gal(b1-3)[Fuc(a1-4)]GlcNAc(b1-3)[Fuc(a1-3)[Gal(b1-4)]GlcNAc(b1-6)]Gal(b1-4)Glc
# Method in brief: as §1
# [21] = target: Fuc(a1-2)Gal(b1-3)[Fuc(a1-4)]GlcNAc(b1-3)[Gal(b1-4)GlcNAc(b1-6)]Gal(b1-4)Glc
# Method in brief: as §1
# [22] = target: Fuc(a1-2)Gal(b1-4)Fuc(a1-3)]GlcNAc(b1-2)Man(a1-3)[Fuc(a1-2)Gal(b1-4)[Fuc(a1-3)]GlcNAc(b1-2)Man(a1-6)]Man(b1-4)GlcNAc(b1-4)GlcNAc
# Method in brief: as §1
# [23] = target: Fuc(a1-2)Gal(b1-4)Glc
# Method in brief: as §1
# [24] = target: Fuc(a1-2)Gal(b1-4)Glc6S
# Method in brief: as §1
# [25] = target: Fuc(a1-2)Gal(b1-4)GlcNAc
# Method in brief: as §1
# [26] = target: Fuc(a1-2)Gal(b1-4)GlcNAc(b1-2)Man
# Method in brief: as §1
# [27] = target: Fuc(a1-2)Gal(b1-4)GlcNAc(b1-2)Man(a1-3)[Fuc(a1-2)Gal(b1-4)GlcNAc(b1-2)Man(a1-6)]Man(b1-4)GlcNAc(b1-4)GlcNAc
# Method in brief: as §1
# [28] = target: Fuc(a1-2)Gal(b1-4)GlcNAc(b1-2)Man(a1-3)[Fuc(a1-2)Gal(b1-4)GlcNAc(b1-2)Man(a1-6)]Man(b1-4)GlcNAc(b1-4)[Fuc(a1-6)]GlcNAc
# Method in brief: as §1
# [29] = target: Fuc(a1-2)Gal(b1-4)GlcNAc(b1-2)[Fuc(a1-2)Gal(b1-4)GlcNAc(b1-4)]Man(a1-3)[Fuc(a1-2)Gal(b1-4)GlcNAc(b1-2)Man(a1-6)]Man(b1-4)GlcNAc(b1-4)GlcNAc
# Method in brief: as §1
# [30] = target: Fuc(a1-2)Gal(b1-4)GlcNAc(b1-3)Gal(b1-4)GlcNAc
# Method in brief: as §1
binder,measurement,setting,value
Epa20 (Candida glabrata) (protein) MGSSHHHHHHSSGLVPRGSHMASSNIPNNYPLGCSNKYSGHLPGLKMELYSYNYVNPRHPDPQNPGKLDQLYDPNLLGTYECFDSSYKDINYPRVGYKSKTLIGRSDGVSGILNFNFVPPWGCMPQKGQLPPAYNFKSNITLSNFTMILFGYFKPKISGNHIFSLHGDDLIYLNFGAGNAFDCCRQESSADNFGNYQAFSLWGINWEKKTLTVYLDMNTYYPIRIFYNNRDYQAIFNFSFKTEFDSSPVIDFQDYFFFLRDIDGGCPGEV,glycan array binding signal (z-score),[1],-0.362
same,glycan array binding signal (z-score),[2],-0.452
same,glycan array binding signal (z-score),[3],-0.469
same,glycan array binding signal (z-score),[4],-0.278
same,glycan array binding signal (z-score),[5],0.885
same,glycan array binding signal (z-score),[6],0.487
same,glycan array binding signal (z-score),[7],-0.415
same,glycan array binding signal (z-score),[8],-0.518
same,glycan array binding signal (z-score),[9],0.572
same,glycan array binding signal (z-score),[10],-0.099
same,glycan array binding signal (z-score),[11],-0.454
same,glycan array binding signal (z-score),[12],-0.358
same,glycan array binding signal (z-score),[13],0.398
same,glycan array binding signal (z-score),[14],0.139
same,glycan array binding signal (z-score),[15],-0.719
same,glycan array binding signal (z-score),[16],-0.404
same,glycan array binding signal (z-score),[17],-0.382
same,glycan array binding signal (z-score),[18],0.295
same,glycan array binding signal (z-score),[19],-0.356
same,glycan array binding signal (z-score),[20],-0.793
same,glycan array binding signal (z-score),[21],-0.805
same,glycan array binding signal (z-score),[22],3.16
same,glycan array binding signal (z-score),[23],-0.513
same,glycan array binding signal (z-score),[24],0.294
same,glycan array binding signal (z-score),[25],-0.626
same,glycan array binding signal (z-score),[26],-0.199
same,glycan array binding signal (z-score),[27],-0.453
same,glycan array binding signal (z-score),[28],-0.005
same,glycan array binding signal (z-score),[29],-0.337
same,glycan array binding signal (z-score),[30],-0.782

# Quoted at random: 2 entries already listed, in no set order.
binder,measurement,setting,value
Epa20 (Candida glabrata) (protein) MGSSHHHHHHSSGLVPRGSHMASSNIPNNYPLGCSNKYSGHLPGLKMELYSYNYVNPRHPDPQNPGKLDQLYDPNLLGTYECFDSSYKDINYPRVGYKSKTLIGRSDGVSGILNFNFVPPWGCMPQKGQLPPAYNFKSNITLSNFTMILFGYFKPKISGNHIFSLHGDDLIYLNFGAGNAFDCCRQESSADNFGNYQAFSLWGINWEKKTLTVYLDMNTYYPIRIFYNNRDYQAIFNFSFKTEFDSSPVIDFQDYFFFLRDIDGGCPGEV,glycan array binding signal (z-score),[25],-0.626
same,glycan array binding signal (z-score),[16],-0.404
